Assay results: US20150299614A1, “IMPROVEMENTS IN OR RELATING TO ORGANIC COMPOUNDS” (Givaudan, S.A., priority 2012, published 2015)

Experiment: Odour description / strength
Conditions: ethanol solution of Example 2a

Structure (SMILES)	Odour
CCOc1cc(C=NOC)ccc1O [Cpd I (R1 = Et, R2 = Me), 3-ethoxy-4-hydroxybenzaldehyde O-methyl oxime]	Spicy vanilla floral
COc1cc(C=O)ccc1O [Vanillin]	vanilla
